These are yes or no findings as the source states them, for the method shown. In cells and extracts the contact can be indirect. Here binding means that the protein was enriched with, or labelled near, the bait; the list need not be complete.
B1: A2MG_HUMAN, P01023 24-1474 (protein)
chain: SVSGKPQYMVLVPSLLHTETTEKGCVLLSYLNETVTVSASLESVRGNRSLFTDLEAENDVLHCVAFAVPKSSSNEEVMFLTVQVKGPTQEFKKRTTVMVKNEDSLVFVQTDKSIYKPGQTVKFRVVSMDENFHPLNELIPLVYIQDPKGNRIAQWQSFQLEGGLKQFSFPLSSEPFQGSYKVVVQKKSGGRTEHPFTVEEFVLPKFEVQVTVPKIITILEEEMNVSVCGLYTYGKPVPGHVTVSICRKYSDASDCHGEDSQAFCEKFSGQLNSHGCFYQQVKTKVFQLKRKEYEMKLHTEAQIQEEGTVVELTGRQSSEITRTITKLSFVKVDSHFRQGIPFFGQVRLVDGKGVPIPNKVIFIRGNEANYYSNATTDEHGLVQFSINTTNVMGTSLTVRVNYKDRSPCYGYQWVSEEHEEAHHTAYLVFSPSKSFVHLEPMSHELPCGHTQTVQAHYILNGGTLLGLKKLSFYYLIMAKGGIVRTGTHGLLVKQEDMKGHFSISIPVKSDIAPVARLLIYAVLPTGDVIGDSAKYDVENCLANKVDLSFSPSQSLPASHAHLRVTAAPQSVCALRAVDQSVLLMKPDAELSASSVYNLLPEKDLTGFPGPLNDQDNEDCINRHNVYINGITYTPVSSTNEKDMYSFLEDMGLKAFTNSKIRKPKMCPQLQQYEMHGPEGLRVGFYESDVMGRGHARLVHVEEPHTETVRKYFPETWIWDLVVVNSAGVAEVGVTVPDTITEWKAGAFCLSEDAGLGISSTASLRAFQPFFVELTMPYSVIRGEAFTLKATVLNYLPKCIRVSVQLEASPAFLAVPVEKEQAPHCICANGRQTVSWAVTPKSLGNVNFTVSAEALESQELCGTEVPSVPEHGRKDTVIKPLLVEPEGLEKETTFNSLLCPSGGEVSEELSLKLPPNVVEESARASVSVLGDILGSAMQNTQNLLQMPYGCGEQNMVLFAPNIYVLDYLNETQQLTPEIKSKAIGYLNTGYQRQLNYKHYDGSYSTFGERYGRNQGNTWLTAFVLKTFAQARAYIFIDEAHITQALIWLSQRQKDNGCFRSSGSLLNNAIKGGVEDEVTLSAYITIALLEIPLTVTHPVVRNALFCLESAWKTAQEGDHGSHVYTKALLAYAFALAGNQDKRKEVLKSLNEEAVKKDNSVHWERPQKPKAPVGHFYEPQAPSAEVEMTSYVLLAYLTAQPAPTSEDLTSATNIVKWITKQQNAQGGFSSTQDTVVALHALSKYGAATFTRTGKAAQVTIQSSGTFSSKFQVDNNNRLLLQQVSLPELPGEYSMKVTGEGCVYLQTSLKYNILPEKEEFPFALGVQTLPQTCDEPKAHTSFQISLSVSYTGSRSASNMAIVDVKMVSGFIPLKPTVKMLERSNHVSRTEVSSNHVLIYLDKVSNQTLSLFFTVLQDVPVRDLKPAIVKVYDYYETDEFAIAEYNAPCSKDLGNA
B2: CATA_HUMAN (protein, UniProt P04040 1-527)
chain: MADSRDPASDQMQHWKEQRAAQKADVLTTGAGNPVGDKLNVITVGPRGPLLVQDVVFTDEMAHFDRERIPERVVHAKGAGAFGYFEVTHDITKYSKAKVFEHIGKKTPIAVRFSTVAGESGSADTVRDPRGFAVKFYTEDGNWDLVGNNTPIFFIRDPILFPSFIHSQKRNPQTHLKDPDMVWDFWSLRPESLHQVSFLFSDRGIPDGHRHMNGYGSHTFKLVNANGEAVYCKFHYKTDQGIKNLSVEDAARLSQEDPDYGIRDLFNAIATGKYPSWTFYIQVMTFNQAETFPFNPFDLTKVWPHKDYPLIPVGKLVLNRNPVNYFAEVEQIAFDPSNMPPGIEASPDKMLQGRLFAYPDTHRHRLGPNYLHIPVNCPYRARVANYQRDGPMCMQDNQGGAPNYYPNSFGAPEQQPSALEHSIQYSGEVRRFNTANDDNVTQVRAFYVNVLNEEQRKRLCENIAGHLKDAQIFIQKKAVKNFTEVHPDYGSHIQALLDKYNAEKPKNAIHTFVQSGSHLAAREKANL
B3: CERU_HUMAN (protein, UniProt P00450 20-1065)
chain: KEKHYYIGIIETTWDYASDHGEKKLISVDTEHSNIYLQNGPDRIGRLYKKALYLQYTDETFRTTIEKPVWLGFLGPIIKAETGDKVYVHLKNLASRPYTFHSHGITYYKEHEGAIYPDNTTDFQRADDKVYPGEQYTYMLLATEEQSPGEGDGNCVTRIYHSHIDAPKDIASGLIGPLIICKKDSLDKEKEKHIDREFVVMFSVVDENFSWYLEDNIKTYCSEPEKVDKDNEDFQESNRMYSVNGYTFGSLPGLSMCAEDRVKWYLFGMGNEVDVHAAFFHGQALTNKNYRIDTINLFPATLFDAYMVAQNPGEWMLSCQNLNHLKAGLQAFFQVQECNKSSSKDNIRGKHVRHYYIAAEEIIWNYAPSGIDIFTKENLTAPGSDSAVFFEQGTTRIGGSYKKLVYREYTDASFTNRKERGPEEEHLGILGPVIWAEVGDTIRVTFHNKGAYPLSIEPIGVRFNKNNEGTYYSPNYNPQSRSVPPSASHVAPTETFTYEWTVPKEVGPTNADPVCLAKMYYSAVEPTKDIFTGLIGPMKICKKGSLHANGRQKDVDKEFYLFPTVFDENESLLLEDNIRMFTTAPDQVDKEDEDFQESNKMHSMNGFMYGNQPGLTMCKGDSVVWYLFSAGNEADVHGIYFSGNTYLWRGERRDTANLFPQTSLTLHMWPDTEGTFNVECLTTDHYTGGMKQKYTVNQCRRQSEDSTFYLGERTYYIAAVEVEWDYSPQREWEKELHHLQEQNVSNAFLDKGEFYIGSKYKKVVYRQYTDSTFRVPVERKAEEEHLGILGPQLHADVGDKVKIIFKNMATRPYSIHAHGVQTESSTVTPTLPGETLTYVWKIPERSGAGTEDSACIPWAYYSTVDQVKDLYSGLIGPLIVCRRPYLKVFNPRRKLEFALLFLVFDENESWYLDDNIKTYSDHPEKVNKDDEEFIESNKMHAINGRMFGNLQGLTMHVGDEVNWYLMGMGNEIDLHTVHFHGHSFQYKHRGVYSSDVFDIFPGTYQTLEMFPRTPGIWLLHCHVTDHIHAGMETTYTVLQNEDTKSG
B4: SPB3_HUMAN (protein, UniProt P29508 1-390)
chain: MNSLSEANTKFMFDLFQQFRKSKENNIFYSPISITSALGMVLLGAKDNTAQQIKKVLHFDQVTENTTGKAATYHVDRSGNVHHQFQKLLTEFNKSTDAYELKIANKLFGEKTYLFLQEYLDAIKKFYQTSVESVDFANAPEESRKKINSWVESQTNEKIKNLIPEGNIGSNTTLVLVNAIYFKGQWEKKFNKEDTKEEKFWPNKNTYKSIQMMRQYTSFHFASLEDVQAKVLEIPYKGKDLSMIVLLPNEIDGLQKLEEKLTAEKLMEWTSLQNMRETRVDLHLPRFKVEESYDLKDTLRTMGMVDIFNGDADLSGMTGSRGLVLSGVLHKAFVEVTEEGAEAAAATAVVGFGSSPTSTNEEFHCNHPFLFFIRQNKTNSILFYGRFSSP
B5: PIP_HUMAN (protein, UniProt P12273 29-146)
chain: QDNTRKIIIKNFDIPKSVRPNDEVTAVLAVQTELKECMVVKTYLISSIPLQGAFNYKYTACLCDDNPKTFYWDFYTNRTVQIAAVVDVIRELGICPDDAAVIPIKNNRFYTIEILKVE
B6: S10A9_HUMAN (protein, UniProt P06702 1-114)
chain: MTCKMSQLERNIETIINTFHQYSVKLGHPDTLNQGEFKELVRKDLQNFLKKENKNEKVIEHIMEDLDTNADKQLSFEEFIMLMARLTWASHEKMHEGDEGPGHHHKPGLGEGTP
B7: IC1_HUMAN (protein, UniProt P05155 23-500)
chain: NPNATSSSSQDPESLQDRGEGKVATTVISKMLFVEPILEVSSLPTTNSTTNSATKITANTTDEPTTQPTTEPTTQPTIQPTQPTTQLPTDSPTQPTTGSFCPGPVTLCSDLESHSTEAVLGDALVDFSLKLYHAFSAMKKVETNMAFSPFSIASLLTQVLLGAGENTKTNLESILSYPKDFTCVHQALKGFTTKGVTSVSQIFHSPDLAIRDTFVNASRTLYSSSPRVLSNNSDANLELINTWVAKNTNNKISRLLDSLPSDTRLVLLNAIYLSAKWKTTFDPKKTRMEPFHFKNSVIKVPMMNSKKYPVAHFIDQTLKAKVGQLQLSHNLSLVILVPQNLKHRLEDMEQALSPSVFKAIMEKLEMSKFQPTLLTLPRIKVTTSQDMLSIMEKLEFFDFSYDLNLCGLTEDPDLQVSAMQHQTVLELTETGVEAAAASAISVARTLLVFEVQQPFLFVLWDQQHKFPVFMGRVYDPRA
B8: PRDX2_HUMAN (protein, UniProt P32119 1-198)
chain: MASGNARIGKPAPDFKATAVVDGAFKEVKLSDYKGKYVVLFFYPLDFTFVCPTEIIAFSNRAEDFRKLGCEVLGVSVDSQFTHLAWINTPRKEGGLGPLNIPLLADVTRRLSEDYGVLKTDEGIAYRGLFIIDGKGVLRQITVNDLPVGRSVDEALRLVQAFQYTDEHGEVCPAGWKPGSDTIKPNVDDSKEYFSKHN
B9: S10A7_HUMAN (protein, UniProt P31151 1-101)
chain: MSNTQAERSIIGMIDMFHKYTRRDDKIEKPSLLTMMKENFPNFLSACDKKGTNYLADVFEKKDKNEDKKIDFSEFLSLLGDIATDYHKQSHGAAPCSGGSQ

Protein sequences, listed by entry. Tags and fused reporters are not part of them. Residues count along the entry.
UniProt P02768, residues 25-609: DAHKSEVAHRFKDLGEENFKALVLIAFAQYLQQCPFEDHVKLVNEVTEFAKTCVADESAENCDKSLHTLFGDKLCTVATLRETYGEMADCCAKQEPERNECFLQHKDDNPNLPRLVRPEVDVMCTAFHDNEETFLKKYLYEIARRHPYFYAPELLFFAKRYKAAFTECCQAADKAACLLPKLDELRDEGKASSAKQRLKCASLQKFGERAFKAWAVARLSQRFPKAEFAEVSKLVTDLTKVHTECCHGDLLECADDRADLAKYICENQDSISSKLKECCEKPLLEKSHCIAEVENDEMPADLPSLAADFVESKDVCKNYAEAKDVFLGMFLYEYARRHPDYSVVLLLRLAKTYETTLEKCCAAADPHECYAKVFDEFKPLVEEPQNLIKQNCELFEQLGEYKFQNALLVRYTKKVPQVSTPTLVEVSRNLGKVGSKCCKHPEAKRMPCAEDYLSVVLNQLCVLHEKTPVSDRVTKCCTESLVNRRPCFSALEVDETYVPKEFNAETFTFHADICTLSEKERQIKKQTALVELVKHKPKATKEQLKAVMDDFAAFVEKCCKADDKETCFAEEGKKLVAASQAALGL

target: albumin (human (endogenous in blood)), P02768; test: cross-linking + affinity purification with mass spectrometry; fresh human blood cross-linked 5 s in 10% formaldehyde, quenched with 4 M Tris; immunoprecipitation with anti-human serum albumin antibody and Protein A + G agarose, washed with PBS; 4-12% SDS-PAGE, six unstained slices above 70 kDa, LC-MS/MS; control: cross-linked sample without antibody; conditions: remark: other sources report otherwise

binding | Binder
binds | B1

target: albumin (human (endogenous in blood)) (UniProt P02768); test: as above; conditions: not given

binding | Binder
binds | B2
binds | B3
binds | B4
binds | B5
binds | B6
binds | B7
binds | B8
binds | B9
